Substitutions are numbered along the chain they refer to. Results are given in words; binding and its absence hold for the method and conditions named. Binding seen in cells or lysates may run through a third protein. Here binding means that the protein was enriched with, or labelled near, the bait; the list need not be complete. For part of these data: No binding means not detected with the bait. Where a sequence is shown, tags or fusion partners need not be part of it.

The chains behind the UniProt entries cited, without tags or fusion partners.
UniProt P55884: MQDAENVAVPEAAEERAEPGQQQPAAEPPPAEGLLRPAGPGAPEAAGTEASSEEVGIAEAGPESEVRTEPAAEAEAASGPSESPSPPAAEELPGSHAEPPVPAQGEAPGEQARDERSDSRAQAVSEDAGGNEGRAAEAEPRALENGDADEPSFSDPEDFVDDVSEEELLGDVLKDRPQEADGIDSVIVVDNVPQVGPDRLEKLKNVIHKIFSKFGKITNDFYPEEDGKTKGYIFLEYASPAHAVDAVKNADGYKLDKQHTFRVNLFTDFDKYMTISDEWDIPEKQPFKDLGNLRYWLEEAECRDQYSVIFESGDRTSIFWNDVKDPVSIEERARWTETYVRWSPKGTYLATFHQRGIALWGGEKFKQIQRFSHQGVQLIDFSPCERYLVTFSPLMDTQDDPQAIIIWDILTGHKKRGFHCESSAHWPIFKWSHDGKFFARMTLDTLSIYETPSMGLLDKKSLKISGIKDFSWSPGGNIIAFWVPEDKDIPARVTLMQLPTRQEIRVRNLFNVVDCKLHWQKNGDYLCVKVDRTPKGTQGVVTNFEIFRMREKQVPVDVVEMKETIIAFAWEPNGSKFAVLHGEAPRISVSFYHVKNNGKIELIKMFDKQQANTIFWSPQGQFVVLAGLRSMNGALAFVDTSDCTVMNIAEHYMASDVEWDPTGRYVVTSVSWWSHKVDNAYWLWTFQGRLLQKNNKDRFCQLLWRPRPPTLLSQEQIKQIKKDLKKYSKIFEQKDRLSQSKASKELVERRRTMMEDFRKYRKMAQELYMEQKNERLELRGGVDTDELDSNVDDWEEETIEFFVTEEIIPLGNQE

The target of test [1] is T1, CERKL-Flag (CERKLa, full length CERKL isoform of 532 amino acids, wild type) (human) (UniProt Q49MI3).
T1 sequence: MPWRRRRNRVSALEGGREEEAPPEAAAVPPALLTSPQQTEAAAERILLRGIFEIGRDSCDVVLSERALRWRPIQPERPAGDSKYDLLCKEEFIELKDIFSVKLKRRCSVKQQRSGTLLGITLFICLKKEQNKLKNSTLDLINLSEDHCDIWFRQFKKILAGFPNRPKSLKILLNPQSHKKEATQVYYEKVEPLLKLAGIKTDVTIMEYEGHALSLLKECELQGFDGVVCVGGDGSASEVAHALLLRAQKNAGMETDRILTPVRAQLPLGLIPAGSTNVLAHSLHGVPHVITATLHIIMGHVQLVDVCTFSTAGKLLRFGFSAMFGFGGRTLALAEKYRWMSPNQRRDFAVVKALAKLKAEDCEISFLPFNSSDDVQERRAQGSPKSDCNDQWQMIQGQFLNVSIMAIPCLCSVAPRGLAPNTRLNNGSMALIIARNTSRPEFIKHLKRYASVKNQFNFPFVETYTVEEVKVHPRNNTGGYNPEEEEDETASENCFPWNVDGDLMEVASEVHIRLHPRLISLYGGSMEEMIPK
Briefly: affinity purification with mass spectrometry; Flag immunoprecipitation (M2 Flag beads, eluted with Flag peptide) from lysates of HEK-293T cells overexpressing Flag-tagged GFP, CERKL-WT or CERKL-C125W; 8% and 20% SDS-PAGE, silver stain, differential bands excised and identified by LC-MS/MS.

Test [2] addresses T2, CERKL-C125W-Flag (pathological point mutant of CERKLa) (human) (UniProt Q49MI3).
T2 sequence: T1 sequence with C125W
Described as above.

For “beta-tubulin (human (endogenous in HEK-293T))”, in test [1], the binding entry was “binds”.
Regarding “alpha-tubulin (human (endogenous in HEK-293T))”, the binding entry in test [1] is “binds”.
As for HSP70 (human (endogenous in HEK-293T)), in test [2], the binding entry is reported as “binds”.
In the case of “eIF3B (translation initiation factor eIF3B) (from UniProt P55884 1-814)”, the binding entry in test [1] is “binds”; in test [2], “no binding”.
Take “PABP (poly(A) binding protein) (human (endogenous in HEK-293T))”: the binding result in test [2] is recorded as “binds”.
